## Results of single-concentration screens

Protein sequences, listed by entry. Tags and fused reporters are not part of them.
UniProt I6X8D2, whole entry: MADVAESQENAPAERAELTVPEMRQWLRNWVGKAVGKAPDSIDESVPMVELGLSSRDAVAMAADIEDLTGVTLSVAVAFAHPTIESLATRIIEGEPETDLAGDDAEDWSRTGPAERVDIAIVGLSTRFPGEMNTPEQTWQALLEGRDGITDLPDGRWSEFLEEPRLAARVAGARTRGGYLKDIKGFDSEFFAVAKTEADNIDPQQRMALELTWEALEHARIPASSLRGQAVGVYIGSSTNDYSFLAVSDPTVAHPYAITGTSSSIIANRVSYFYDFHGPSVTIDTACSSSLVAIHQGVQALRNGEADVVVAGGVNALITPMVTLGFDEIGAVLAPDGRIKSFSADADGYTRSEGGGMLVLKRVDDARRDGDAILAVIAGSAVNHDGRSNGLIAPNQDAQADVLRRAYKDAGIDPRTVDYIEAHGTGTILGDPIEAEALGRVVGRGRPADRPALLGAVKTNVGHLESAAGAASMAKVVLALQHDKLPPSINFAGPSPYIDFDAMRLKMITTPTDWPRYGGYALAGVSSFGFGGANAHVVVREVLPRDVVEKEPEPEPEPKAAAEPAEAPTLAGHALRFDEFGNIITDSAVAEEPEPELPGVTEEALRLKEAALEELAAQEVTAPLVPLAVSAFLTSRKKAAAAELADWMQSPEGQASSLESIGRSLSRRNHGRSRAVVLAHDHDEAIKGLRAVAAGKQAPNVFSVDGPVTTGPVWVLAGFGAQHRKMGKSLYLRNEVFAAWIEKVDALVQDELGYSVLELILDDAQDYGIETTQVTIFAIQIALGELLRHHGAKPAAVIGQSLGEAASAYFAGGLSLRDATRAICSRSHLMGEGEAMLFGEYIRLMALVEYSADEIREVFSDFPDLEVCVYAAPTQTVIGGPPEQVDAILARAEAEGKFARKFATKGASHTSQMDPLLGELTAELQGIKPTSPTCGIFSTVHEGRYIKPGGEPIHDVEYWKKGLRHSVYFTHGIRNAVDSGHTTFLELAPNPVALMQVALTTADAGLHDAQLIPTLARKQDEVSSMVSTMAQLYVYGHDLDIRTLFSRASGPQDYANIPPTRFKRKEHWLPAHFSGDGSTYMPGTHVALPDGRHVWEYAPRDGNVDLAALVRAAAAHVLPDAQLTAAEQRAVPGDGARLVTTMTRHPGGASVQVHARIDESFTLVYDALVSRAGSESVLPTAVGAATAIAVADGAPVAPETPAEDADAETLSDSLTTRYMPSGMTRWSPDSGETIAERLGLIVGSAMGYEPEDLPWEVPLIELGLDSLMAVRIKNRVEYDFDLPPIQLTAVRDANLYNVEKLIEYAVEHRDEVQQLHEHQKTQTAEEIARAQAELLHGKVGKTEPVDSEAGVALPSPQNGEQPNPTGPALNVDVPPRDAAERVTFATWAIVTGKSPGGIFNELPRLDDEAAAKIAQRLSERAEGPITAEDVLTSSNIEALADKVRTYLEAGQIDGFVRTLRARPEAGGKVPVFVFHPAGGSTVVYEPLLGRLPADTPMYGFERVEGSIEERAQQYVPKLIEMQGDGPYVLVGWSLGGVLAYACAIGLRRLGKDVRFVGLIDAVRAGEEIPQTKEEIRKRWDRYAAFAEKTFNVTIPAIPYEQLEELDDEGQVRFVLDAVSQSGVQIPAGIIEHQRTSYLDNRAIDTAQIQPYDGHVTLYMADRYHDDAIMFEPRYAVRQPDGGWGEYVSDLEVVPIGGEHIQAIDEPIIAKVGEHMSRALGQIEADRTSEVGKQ

Values are the deposited “Percent Effect”, in %.
The controls that fix the scale are not given in the record; negative values are as filed.
The compounds are a random part of those screened.

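Polyketide synthase Pks13, Mycobacterium tuberculosis (UniProt I6X8D2). Enzyme assay of the thioesterase domain of polyketide synthase 13; the read-out is not stated. Tested at 30 µM. The record gives no direction; the compounds picked for IC50 retests had high values, so higher reads as stronger inhibition. Size under these conditions: about 67,000 compounds, about 300 of them at 50% or above in at least one test.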

structure | Percent Effect
O=C1CNCC(C(=O)N2CC(Oc3ccccc3Cl)C2)N1 (stereo not shown) | -43.68%
CN(C)C(=O)CC1CC2(CCN(Cc3cccs3)CC2)c2ccccc21 (stereo not shown) | -14.55%
COc1ccc(-c2ccnc3nc(N4CCCC4)[nH]c(=O)c23)cc1OC | -15.23%
O=C(Nc1ccc(Br)cc1F)c1cc(CN2CCOCC2)on1 | 4.839%
Cn1c(=O)[nH]c(=O)n2c(CC(=O)NCc3ccccc3)cnc12 | -8.266%
O=C(NCCC1CCCO1)c1ccccc1N1CCOCC1 (stereo not shown) | -21.05%
O=C(c1ccc[nH]1)N1CCc2ncc(Cn3cccn3)n2CC1 | -41.84%
CC1CN(CC(=O)NCc2ccccn2)CCN1Cc1nccn1C (stereo not shown) | -8.759%
Cc1nnc(CN(C)C2CCN(Cc3nc4ccccc4n3C)C2)o1 (stereo not shown) | -6.465%
O=C(c1cccnc1)N1CCc2c(nc(N3CCCC3)[nH]c2=O)C1 | -24.7%
CC(=O)N1C[C@H](NS(=O)(=O)Cc2cccc(Cl)c2)[C@@H](C(C)C)C1 | -7.194%
NC(=O)NC1CCN(Cc2ccc(Br)c(F)c2)CC1 | 11.64%
O=C(c1ccncc1)N1CCCC2(CCN(c3cccnc3)C2=O)C1 (stereo not shown) | 10.41%
CC(c1ccc2c(c1)OCCO2)N(C)C(=O)c1ccnnc1 (stereo not shown) | 2.077%
Cn1ccc2c(NC(=O)Cn3ncc4c(c3=O)CCCCC4)cccc21 | 2.649%
CC(C)(C)c1cc(C(=O)NCCn2nc3ccccn3c2=O)[nH]n1 | 8.983%
CNc1oc(-c2cc(S(=O)(=O)N3CCCCCC3)c(C)o2)nc1C#N | -41.16%
COc1ccccc1CN1CC[C@]2(C[C@@H](OC)CO2)C1 | 11.57%
COCCOc1ccccc1C(=O)N1CCCCC1c1nccs1 (stereo not shown) | -8.238%
O=C(CN1C=Nc2ccccc2S1(=O)=O)NC1CCCCC1 | 7.904%
CN(C)CCN1CCCC12CCN(C(=O)c1ccncc1)CC2 | -18.35%
CN1CCN(C(=O)Cc2csc(-c3ccsc3)n2)C(c2ccccc2)C1 (stereo not shown) | 4.281%
O=C1CC2(CCN(CCCO)CC2)CN1Cc1ccc(F)c(F)c1 | -16.47%
Cc1ccc(C#N)c(N2CCC(c3nccn3CCN(C)C)CC2)n1 | -7.459%
Cc1nc[nH]c1CN1CCC(C2CCN(CCc3ccccc3)C2)CC1 (stereo not shown) | -9.173%
Cc1noc(C)c1C(=O)N1CC[C@H]2C[C@@H](c3nccs3)O[C@@H]2C1 | -22.89%
Cn1cc(Br)c(=O)c(NS(=O)(=O)c2ccc(Cl)cc2)c1 | -24.79%
CCc1nc(C2CCCN2c2ncc(C(N)=O)cc2Cl)no1 (stereo not shown) | -5.983%
Cc1cc(C)n(C2CCCN(C(=O)c3cccc4c3OCO4)C2)n1 (stereo not shown) | -12.41%
O=C1CC2(CCN(C(=O)c3ccc4c(c3)CCCO4)C2)C(=O)N1 (stereo not shown) | 6.455%
Cc1ccnc(C2COCCN2C)n1 (stereo not shown) | 0.8094%
Cc1ccc(CN2C(=O)CC[C@]23CC[C@@H](NCC2CCOC2)CC3)cc1 (stereo partly shown) | -45.15%
Cc1cnn(CC2CCCCN2C(=O)c2c(C)noc2C)c1 (stereo not shown) | -4.02%
CCS(=O)(=O)Nc1cnn(Cc2cccc(F)c2)c1 | -9.633%
CCn1cc(C(=O)NCc2ccc3c(c2)OCO3)c(C)n1 | -43.04%
CC(C)COC(=O)N1CC(=O)N(Cc2ccco2)CC(O)C1 (stereo not shown) | 10.49%
c1cnc(N2CC[C@@H]3[C@@H]2CCN3Cc2cccs2)nc1 | -47.72%
Cc1nc(C)c(CC(=O)N2CCC(Oc3ccccc3)CC2)c(=O)[nH]1 | -3.641%
O=C(CN1CC(c2ccccc2)CC1=O)N1CCN(c2nccs2)CC1 (stereo not shown) | 9.559%
CN1CC(=O)N(c2cccc(F)c2)CC12CCN(CC1CCOCC1)C2 (stereo not shown) | 3.009%
Fc1ccc(CN2CCCC(Cn3cncn3)C2)c2ncccc12 (stereo not shown) | -25.42%
Cc1nc(CN2CCN(CC(=O)Nc3c(C)cccc3C)CC2)no1 | -10.52%
Cn1ccnc1CN1CCCC(Cc2ccnc3ccncc23)CC1 (stereo not shown) | -9.159%
Cn1ccc(C(=O)NCC2(O)CCN(c3cnccn3)C2)n1 (stereo not shown) | 4.217%
COC(=O)c1cccn1C1CCN(Cc2cnc3ccccn23)CC1 | -20.76%
CCc1nncn1CCNC(=O)Nc1ccc2c(c1)CCCO2 | -11.73%
O=C([C@H]1COC[C@H]2CN(C3CCOCC3)C[C@H]21)N1CCCO1 | -30.67%
CC(=O)N1CC[C@@H]2O[C@@H](COCc3csc(C)n3)CC[C@@H]21 | -47.11%
CC(C)C(C(N)=O)c1cccc(Cl)c1 (stereo not shown) | -15.32%
Cc1cc(C)n(-c2nc(C(=O)NCCN3CCC(C)CC3)cs2)n1 | 51.23%
O=C(c1ccc(-c2ccccc2)[nH]c1=O)N1CCN(C2CC2)CC1 | 7.571%
O=C(c1ccc(C2CCCN2C(=O)c2cscn2)s1)N1CCSCC1 (stereo not shown) | 1.126%
COc1ccc(CNCc2c(C)nn(C)c2N2CCOCC2)cc1 | -8.138%
CCc1nc2n(n1)CC(NCc1cnc(-c3ccccc3)nc1)CC2 (stereo not shown) | -14.96%
CC(=O)N1CCCN(Cc2ccon2)c2ccccc21 | -15.72%
CC1CCN(c2ccc3c(-c4ncc(C(=O)O)s4)noc3c2)CC1 | -13.6%
Cc1nc(CCNC(=O)NC2CCCN(c3ncccn3)C2)cs1 (stereo not shown) | 8.073%
COc1cccc2ccn(CCC(=O)N3CCCC(C(=O)O)C3)c12 (stereo not shown) | -24.05%
CS(=O)(=O)NCc1cc(=O)n2c(n1)CN(CC1CC1)CCC2 | -6.297%
CC1(c2ncc(CN3CCSCC3)cn2)CCCCO1 (stereo not shown) | -13.01%
O=C(C1CC(=O)N(c2ccccc2Br)C1)N1CCN(CC(F)(F)F)CC1 (stereo not shown) | -5.68%
COc1ccc(C2=CCN(C(=O)CN(CC(N)=O)C(C)C)CC2)cc1 | 14.65%
CC(=O)N1CCN(C(=O)NC(C)C)CC2(CNC(=O)C2)C1 (stereo not shown) | 3.843%
Cc1cc(CN2CC[C@H]3C[C@H](C(=O)N4CCC(C)CC4)O[C@H]3C2)no1 | -35.25%
Cc1cccc(Nc2nccnc2C2CCCN(CC(=O)N(C)C)C2)n1 (stereo not shown) | 17.34%
CN(CCO)CC1COCCN1C(=O)CCC1CCCC1 (stereo not shown) | 5.709%
Cc1noc(C)c1CN1CCOC2(CCCN(c3ncccn3)C2)C1 (stereo not shown) | -32.75%
O=c1[nH]c(CN(Cc2ccco2)C2CCCC2)nc2ccccc12 | -10.82%
CC(C)C(NC(=O)Nc1cnn(CC(N)=O)c1)c1ccc(Cl)cc1 (stereo not shown) | -38.16%
O=C(C1CC12CCC2)N1CCC(n2cc(-c3ccsc3)nn2)CC1 (stereo not shown) | -23.72%
CCc1ccccc1-n1nnc(C(=O)O)c1-c1ccccn1 | -28.79%
O=C(c1c[nH]cn1)N1CCC(F)(F)C2(CCN(c3cccc(F)c3)C2)C1 (stereo not shown) | -36.8%
CC(C)(CO)CNC(=O)c1cc(-c2cc[nH]n2)n2ccccc12 | 67.2%
Cc1cc(C)c(CNC(=O)C2CCN(c3cnccn3)CC2)c(=O)[nH]1 | -12.25%
CN(CC(N)=O)CC1(c2ccc(Br)cc2)CC1 | -9.669%
CCCN(C)C(=O)c1ccc2c(c1)[nH]c(=O)n2CCOCC | -29.2%
Cc1ccc(CN2CCC3(CC(C(=O)NC4CCC4)=NO3)C2)o1 (stereo not shown) | -3.441%

For reference, 8 entries once more:

structure	Percent Effect
Cn1ccc2c(NC(=O)Cn3ncc4c(c3=O)CCCCC4)cccc21	2.649%
CCc1ccccc1-n1nnc(C(=O)O)c1-c1ccccn1	-28.79%
O=C(CN1CC(c2ccccc2)CC1=O)N1CCN(c2nccs2)CC1 (stereo not shown)	9.559%
O=C(c1ccc(C2CCCN2C(=O)c2cscn2)s1)N1CCSCC1 (stereo not shown)	1.126%
Cc1ccc(CN2CCC3(CC(C(=O)NC4CCC4)=NO3)C2)o1 (stereo not shown)	-3.441%
CN(CC(N)=O)CC1(c2ccc(Br)cc2)CC1	-9.669%
CCc1nc2n(n1)CC(NCc1cnc(-c3ccccc3)nc1)CC2 (stereo not shown)	-14.96%
COCCOc1ccccc1C(=O)N1CCCCC1c1nccs1 (stereo not shown)	-8.238%

From ChEMBL document CHEMBL3988442, “University of Dundee, Small-Polar-MMV Screening Library” (2021).